PubChem BioAssay AID1259424 – University of Nebraska Medical Center, 2018
Assay: 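Rank knockdowns across the genome by resemblance to the KSR1 depletion profile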 (primary screen). System: human HCT116 colon cancer cells. Reagent: siRNA pool against human genes, 50 nM. Detection: 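Six signature mRNAs by branched-DNA multiplex assay, scaled to two housekeeping genes and non-targeting median, log2; matched to mean KSR1 knockdown profile by Pearson correlation and euclidean distance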. Reading the numbers: mean correlation with KSR1 profile: higher = expression change more like KSR1 knockdown; mean distance from KSR1 profile: higher = expression change less like KSR1 knockdown.
In all, the deposit lists about 14,000 reagents; this is a random part of them. 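Higher correlation or smaller distance means closer resemblance to KSR1 loss; control wells, including KSR1 knockdowns, recur on many plates.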 Some reagents were tested in more than one well and are listed for each. Further read-outs or replicates are left out here. Reagent sequences are not shown. Not stated in the record: the time to read-out.

The opening 3 records, ahead of the listing:
NDUFS5 (NADH:ubiquinone oxidoreductase subunit S5) — mean correlation with KSR1 profile = 0.0323; mean distance from KSR1 profile = 2.22
CHST11 (carbohydrate sulfotransferase 11) — mean correlation with KSR1 profile = -0.309; mean distance from KSR1 profile = 2.41
CYSLTR1 (cysteinyl leukotriene receptor 1) — mean correlation with KSR1 profile = 0.447; mean distance from KSR1 profile = 2.16

The list itself, from the first entry:
NDUFS5 (NADH:ubiquinone oxidoreductase subunit S5) — mean correlation with KSR1 profile = 0.0323; mean distance from KSR1 profile = 2.22
CHST11 (carbohydrate sulfotransferase 11) — mean correlation with KSR1 profile = -0.309; mean distance from KSR1 profile = 2.41
CYSLTR1 (cysteinyl leukotriene receptor 1) — mean correlation with KSR1 profile = 0.447; mean distance from KSR1 profile = 2.16
DNMT3A (DNA methyltransferase 3 alpha) — mean correlation with KSR1 profile = -0.489; mean distance from KSR1 profile = 5.06
NFKBIA (NFKB inhibitor alpha) — mean correlation with KSR1 profile = 0.599; mean distance from KSR1 profile = 1.58
CDC25C (cell division cycle 25C) — mean correlation with KSR1 profile = -0.137; mean distance from KSR1 profile = 2.72
UBD (ubiquitin like modifier D) — mean correlation with KSR1 profile = -0.325; mean distance from KSR1 profile = 2.38
H2BC8 (H2B clustered histone 8) — mean correlation with KSR1 profile = -0.308; mean distance from KSR1 profile = 2.73
ZNF205 (zinc finger protein 205) — mean correlation with KSR1 profile = -0.206; mean distance from KSR1 profile = 2.02
UBE2S (ubiquitin conjugating enzyme E2 S) — mean correlation with KSR1 profile = -0.0283; mean distance from KSR1 profile = 2
ITGB6 (integrin subunit beta 6) — mean correlation with KSR1 profile = 0.681; mean distance from KSR1 profile = 0.826
FANCE (FA complementation group E) — mean correlation with KSR1 profile = -0.603; mean distance from KSR1 profile = 5.6
SRSF6 (serine and arginine rich splicing factor 6) — mean correlation with KSR1 profile = 0.0475; mean distance from KSR1 profile = 1.39
SMPD3 (sphingomyelin phosphodiesterase 3) — mean correlation with KSR1 profile = 0.307; mean distance from KSR1 profile = 2.22
MSMB (microseminoprotein beta) — mean correlation with KSR1 profile = -0.239; mean distance from KSR1 profile = 2.18
DNAAF9 (dynein axonemal assembly factor 9) — mean correlation with KSR1 profile = -0.561; mean distance from KSR1 profile = 1.88
MKRN4P (makorin ring finger protein 4, pseudogene) — mean correlation with KSR1 profile = 0.13; mean distance from KSR1 profile = 1.44
ZBED3 (zinc finger BED-type containing 3) — mean correlation with KSR1 profile = 0.754; mean distance from KSR1 profile = 1.42
AP2S1 (adaptor related protein complex 2 subunit sigma 1) — mean correlation with KSR1 profile = 0.00975; mean distance from KSR1 profile = 2.95
TAX1BP3 (Tax1 binding protein 3) — mean correlation with KSR1 profile = 0.471; mean distance from KSR1 profile = 2.97
GDI1 (GDP dissociation inhibitor 1) — mean correlation with KSR1 profile = -0.027; mean distance from KSR1 profile = 2.3
FLVCR2 (FLVCR choline and putative heme transporter 2) — mean correlation with KSR1 profile = -0.338; mean distance from KSR1 profile = 4.13
COXFA4L3 (cytochrome c oxidase associated subunit FA4L3) — mean correlation with KSR1 profile = 0.925; mean distance from KSR1 profile = 2.83
CIB1 (calcium and integrin binding 1) — mean correlation with KSR1 profile = -0.297; mean distance from KSR1 profile = 1.87
JAK2 (Janus kinase 2) — mean correlation with KSR1 profile = -0.133; mean distance from KSR1 profile = 1.83
FOLH1 (folate hydrolase 1) — mean correlation with KSR1 profile = 0.296; mean distance from KSR1 profile = 2.44
CHMP5 (charged multivesicular body protein 5) — mean correlation with KSR1 profile = -0.499; mean distance from KSR1 profile = 2.79
DLC1 (DLC1 Rho GTPase activating protein) — mean correlation with KSR1 profile = 0.567; mean distance from KSR1 profile = 1.99
AGTR1 (angiotensin II receptor type 1) — mean correlation with KSR1 profile = 0.561; mean distance from KSR1 profile = 2.06
CEBPZ (CCAAT enhancer binding protein zeta) — mean correlation with KSR1 profile = 0.0473; mean distance from KSR1 profile = 3.18
HOXC6 (homeobox C6) — mean correlation with KSR1 profile = -0.199; mean distance from KSR1 profile = 3.05
COL16A1 (collagen type XVI alpha 1 chain) — mean correlation with KSR1 profile = 0.167; mean distance from KSR1 profile = 1.58
AVPR1A (arginine vasopressin receptor 1A) — mean correlation with KSR1 profile = 0.607; mean distance from KSR1 profile = 1.5
AVPR1A (arginine vasopressin receptor 1A) — mean correlation with KSR1 profile = 0.356; mean distance from KSR1 profile = 2.39
ZNF552 (zinc finger protein 552) — mean correlation with KSR1 profile = 0.282; mean distance from KSR1 profile = 2.13
GPNMB (glycoprotein nmb) — mean correlation with KSR1 profile = -0.281; mean distance from KSR1 profile = 2.8
